Values of other authors as cited in patent publication US20060013871A1 (priority 2003, published 2006).
Where two headings read alike, the source gives them in different places.

Details: cited from earlier work

CC(C)Cc1ccc(C(C)C(=O)O)cc1 (centres unmarked) [Ibuprofen]
solubility (pH 1.0): almost insoluble | solubility (pH 7.0): soluble
